The data set can be described thus: Trapping of catalyst-allenoate adducts, 1H NMR monitoring of allenoate decrease. Particulars: 1:1:1 allenoate, catalyst hydrochloride in CDCl3, 298 K.

The source of these data is publication PMC12643354, “From Oxygen to Tellurium: The Impact of the Chalcogen on Nucleophilicities and Basicities of Isochalcogenourea Catalysts” (Angewandte Chemie (International Ed. in English), 2025).

The structures appear in SMILES notation.

For `CC(C)[C@@H]1CN2C(=N[C@@H]1c1ccccc1)[Se]c1ccccc12` [ISeU5, SeHyperBTM], the “Rate of addition to allenoate (formation of adducts 28 and 29)” value is on record as “fastest”. As for `c1ccc2c(c1)[Te]C1=NCCCN12` [ITeU3, TeDHPB], the “Rate of addition to allenoate (formation of adducts 28 and 29)” value is listed as “so fast that it could not be followed by these NMR techniques anymore”.
